Data as given in paper PMC7480864.
These are yes or no findings as the source states them, for the method shown. In cells and extracts the contact can be indirect. These calls come from enrichment with a bait or labelling near it, and not all partners need be listed. Tags and fused reporters may be left off the sequences shown.

Protein sequences, listed by entry. Tags and fused reporters are not part of them. Residues count along the entry.
UniProt Q9UI09: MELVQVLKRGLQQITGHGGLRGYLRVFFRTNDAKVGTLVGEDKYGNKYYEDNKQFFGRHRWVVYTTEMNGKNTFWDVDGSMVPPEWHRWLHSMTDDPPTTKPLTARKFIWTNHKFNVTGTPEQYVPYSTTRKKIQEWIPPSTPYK
UniProt Q9Y4W6, residues 67-797: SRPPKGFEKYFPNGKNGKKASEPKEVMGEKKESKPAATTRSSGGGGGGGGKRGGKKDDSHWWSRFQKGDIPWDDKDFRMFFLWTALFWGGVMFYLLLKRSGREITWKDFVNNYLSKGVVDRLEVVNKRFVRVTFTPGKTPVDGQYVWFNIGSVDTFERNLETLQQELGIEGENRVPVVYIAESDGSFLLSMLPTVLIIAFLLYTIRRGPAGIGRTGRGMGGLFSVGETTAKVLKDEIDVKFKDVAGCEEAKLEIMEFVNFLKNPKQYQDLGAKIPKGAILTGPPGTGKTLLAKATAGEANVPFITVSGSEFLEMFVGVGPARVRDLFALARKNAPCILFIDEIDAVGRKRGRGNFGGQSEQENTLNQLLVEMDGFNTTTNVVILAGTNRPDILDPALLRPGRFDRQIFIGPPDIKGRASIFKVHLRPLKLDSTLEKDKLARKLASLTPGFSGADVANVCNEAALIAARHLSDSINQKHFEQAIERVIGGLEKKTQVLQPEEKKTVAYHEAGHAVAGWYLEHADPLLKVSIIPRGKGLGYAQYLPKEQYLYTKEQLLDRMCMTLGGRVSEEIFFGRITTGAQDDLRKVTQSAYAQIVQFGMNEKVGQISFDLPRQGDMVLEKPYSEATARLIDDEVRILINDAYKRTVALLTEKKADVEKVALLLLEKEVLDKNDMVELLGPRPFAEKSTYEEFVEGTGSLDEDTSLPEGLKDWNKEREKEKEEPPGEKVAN
UniProt P11182, residues 62-482: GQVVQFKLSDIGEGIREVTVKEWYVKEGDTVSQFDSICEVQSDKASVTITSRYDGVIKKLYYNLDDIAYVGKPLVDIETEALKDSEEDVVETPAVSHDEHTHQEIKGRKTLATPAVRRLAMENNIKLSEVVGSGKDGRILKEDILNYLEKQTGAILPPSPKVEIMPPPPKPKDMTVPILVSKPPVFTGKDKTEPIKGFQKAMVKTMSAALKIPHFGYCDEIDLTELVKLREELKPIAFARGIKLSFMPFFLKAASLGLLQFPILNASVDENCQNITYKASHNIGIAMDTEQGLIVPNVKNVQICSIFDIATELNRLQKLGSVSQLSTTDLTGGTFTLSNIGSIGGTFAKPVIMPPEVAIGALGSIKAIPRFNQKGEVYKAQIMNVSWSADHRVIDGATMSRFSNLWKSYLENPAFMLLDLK
UniProt P61604: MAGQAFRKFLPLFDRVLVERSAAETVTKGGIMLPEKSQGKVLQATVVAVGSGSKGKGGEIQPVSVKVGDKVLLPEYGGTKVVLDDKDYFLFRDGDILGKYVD
UniProt O75380, residues 29-124: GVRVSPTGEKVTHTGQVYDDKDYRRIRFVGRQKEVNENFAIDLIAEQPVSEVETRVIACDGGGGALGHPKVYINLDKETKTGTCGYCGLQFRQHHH
UniProt P00367, residues 54-558: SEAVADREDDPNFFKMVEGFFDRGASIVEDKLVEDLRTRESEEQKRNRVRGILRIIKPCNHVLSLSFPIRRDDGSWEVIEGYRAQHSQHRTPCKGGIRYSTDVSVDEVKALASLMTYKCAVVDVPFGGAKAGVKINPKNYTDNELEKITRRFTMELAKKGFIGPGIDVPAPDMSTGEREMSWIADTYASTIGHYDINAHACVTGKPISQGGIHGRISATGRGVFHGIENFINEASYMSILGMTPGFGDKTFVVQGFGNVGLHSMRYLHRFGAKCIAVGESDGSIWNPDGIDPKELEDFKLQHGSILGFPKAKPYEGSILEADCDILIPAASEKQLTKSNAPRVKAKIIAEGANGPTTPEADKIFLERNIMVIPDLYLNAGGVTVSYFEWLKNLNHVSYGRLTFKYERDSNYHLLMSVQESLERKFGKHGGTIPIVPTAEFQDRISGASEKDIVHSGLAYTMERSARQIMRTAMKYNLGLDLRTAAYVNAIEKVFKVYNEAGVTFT
UniProt Q9NWU1, residues 28-459: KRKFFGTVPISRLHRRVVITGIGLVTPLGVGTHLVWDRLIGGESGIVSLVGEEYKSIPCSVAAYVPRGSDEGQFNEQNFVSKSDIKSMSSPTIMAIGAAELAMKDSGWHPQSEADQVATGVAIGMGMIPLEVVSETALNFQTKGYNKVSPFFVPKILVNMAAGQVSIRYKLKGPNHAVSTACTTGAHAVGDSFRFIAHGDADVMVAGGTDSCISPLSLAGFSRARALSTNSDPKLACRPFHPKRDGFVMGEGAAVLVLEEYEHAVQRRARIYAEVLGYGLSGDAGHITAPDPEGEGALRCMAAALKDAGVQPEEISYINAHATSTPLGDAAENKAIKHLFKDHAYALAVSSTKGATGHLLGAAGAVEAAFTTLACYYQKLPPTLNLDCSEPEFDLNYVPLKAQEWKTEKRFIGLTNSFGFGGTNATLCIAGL
UniProt P19404, residues 33-249: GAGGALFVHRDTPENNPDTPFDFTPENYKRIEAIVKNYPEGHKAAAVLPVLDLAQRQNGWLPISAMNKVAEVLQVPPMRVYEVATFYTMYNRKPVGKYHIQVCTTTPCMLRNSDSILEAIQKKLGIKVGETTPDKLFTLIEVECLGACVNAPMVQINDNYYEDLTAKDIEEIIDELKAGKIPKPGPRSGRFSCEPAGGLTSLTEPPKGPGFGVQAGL
UniProt P56181, residues 35-108: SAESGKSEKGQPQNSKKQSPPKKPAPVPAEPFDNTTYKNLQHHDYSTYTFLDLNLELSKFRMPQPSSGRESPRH
UniProt P14927: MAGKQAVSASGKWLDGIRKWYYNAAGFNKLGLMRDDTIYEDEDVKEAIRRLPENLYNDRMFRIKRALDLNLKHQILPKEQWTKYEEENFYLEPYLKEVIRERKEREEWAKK
UniProt O76031, residues 57-633: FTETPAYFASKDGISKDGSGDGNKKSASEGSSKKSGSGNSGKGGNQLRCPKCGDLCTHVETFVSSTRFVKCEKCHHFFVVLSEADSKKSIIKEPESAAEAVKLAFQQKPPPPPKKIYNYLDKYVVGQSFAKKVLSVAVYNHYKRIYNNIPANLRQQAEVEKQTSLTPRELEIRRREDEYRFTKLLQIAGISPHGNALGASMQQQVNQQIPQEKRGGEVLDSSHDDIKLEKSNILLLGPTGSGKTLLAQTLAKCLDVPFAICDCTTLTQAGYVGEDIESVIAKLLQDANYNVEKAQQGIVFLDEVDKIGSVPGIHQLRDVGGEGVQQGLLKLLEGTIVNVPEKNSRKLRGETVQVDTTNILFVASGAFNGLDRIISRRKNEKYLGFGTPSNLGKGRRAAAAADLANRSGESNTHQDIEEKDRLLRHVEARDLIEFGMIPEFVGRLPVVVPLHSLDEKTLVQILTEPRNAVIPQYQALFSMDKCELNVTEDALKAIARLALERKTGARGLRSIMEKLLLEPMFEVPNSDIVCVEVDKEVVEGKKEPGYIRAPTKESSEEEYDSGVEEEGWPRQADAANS
UniProt O94925, residues 55-669: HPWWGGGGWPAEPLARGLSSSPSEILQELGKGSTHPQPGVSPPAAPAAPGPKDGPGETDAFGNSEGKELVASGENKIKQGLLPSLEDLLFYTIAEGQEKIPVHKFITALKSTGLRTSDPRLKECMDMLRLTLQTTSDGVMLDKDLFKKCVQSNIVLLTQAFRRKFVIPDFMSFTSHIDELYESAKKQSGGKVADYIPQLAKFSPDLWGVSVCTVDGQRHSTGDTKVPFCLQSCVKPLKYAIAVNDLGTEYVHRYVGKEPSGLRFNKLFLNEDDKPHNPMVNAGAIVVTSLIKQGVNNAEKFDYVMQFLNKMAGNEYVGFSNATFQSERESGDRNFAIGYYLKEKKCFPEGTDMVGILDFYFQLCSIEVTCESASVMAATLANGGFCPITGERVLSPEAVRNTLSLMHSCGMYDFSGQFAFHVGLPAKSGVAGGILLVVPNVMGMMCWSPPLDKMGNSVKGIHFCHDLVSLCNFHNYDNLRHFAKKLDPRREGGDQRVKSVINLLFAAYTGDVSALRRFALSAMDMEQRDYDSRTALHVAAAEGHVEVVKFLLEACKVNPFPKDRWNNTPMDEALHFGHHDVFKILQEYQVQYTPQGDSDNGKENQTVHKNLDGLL
UniProt Q9P032: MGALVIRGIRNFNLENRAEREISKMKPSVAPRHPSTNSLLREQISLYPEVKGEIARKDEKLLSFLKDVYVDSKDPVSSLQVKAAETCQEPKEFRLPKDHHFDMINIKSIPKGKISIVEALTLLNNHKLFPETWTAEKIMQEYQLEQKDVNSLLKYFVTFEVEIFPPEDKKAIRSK
UniProt Q9H1K1, residues 35-167: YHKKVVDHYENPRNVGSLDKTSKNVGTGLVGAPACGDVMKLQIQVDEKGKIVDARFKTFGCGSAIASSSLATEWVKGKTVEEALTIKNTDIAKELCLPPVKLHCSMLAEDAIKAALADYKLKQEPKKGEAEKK
UniProt A4D1E9: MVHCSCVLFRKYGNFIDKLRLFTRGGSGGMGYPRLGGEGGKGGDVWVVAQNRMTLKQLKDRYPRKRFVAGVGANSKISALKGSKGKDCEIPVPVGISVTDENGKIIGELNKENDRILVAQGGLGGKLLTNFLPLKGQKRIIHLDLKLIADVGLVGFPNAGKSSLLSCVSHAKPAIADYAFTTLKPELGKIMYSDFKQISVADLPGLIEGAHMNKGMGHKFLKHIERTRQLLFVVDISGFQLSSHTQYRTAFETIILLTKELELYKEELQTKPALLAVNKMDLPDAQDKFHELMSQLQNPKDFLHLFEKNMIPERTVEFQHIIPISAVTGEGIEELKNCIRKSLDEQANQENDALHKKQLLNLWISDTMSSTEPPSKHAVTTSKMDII
UniProt P31040, residues 43-664: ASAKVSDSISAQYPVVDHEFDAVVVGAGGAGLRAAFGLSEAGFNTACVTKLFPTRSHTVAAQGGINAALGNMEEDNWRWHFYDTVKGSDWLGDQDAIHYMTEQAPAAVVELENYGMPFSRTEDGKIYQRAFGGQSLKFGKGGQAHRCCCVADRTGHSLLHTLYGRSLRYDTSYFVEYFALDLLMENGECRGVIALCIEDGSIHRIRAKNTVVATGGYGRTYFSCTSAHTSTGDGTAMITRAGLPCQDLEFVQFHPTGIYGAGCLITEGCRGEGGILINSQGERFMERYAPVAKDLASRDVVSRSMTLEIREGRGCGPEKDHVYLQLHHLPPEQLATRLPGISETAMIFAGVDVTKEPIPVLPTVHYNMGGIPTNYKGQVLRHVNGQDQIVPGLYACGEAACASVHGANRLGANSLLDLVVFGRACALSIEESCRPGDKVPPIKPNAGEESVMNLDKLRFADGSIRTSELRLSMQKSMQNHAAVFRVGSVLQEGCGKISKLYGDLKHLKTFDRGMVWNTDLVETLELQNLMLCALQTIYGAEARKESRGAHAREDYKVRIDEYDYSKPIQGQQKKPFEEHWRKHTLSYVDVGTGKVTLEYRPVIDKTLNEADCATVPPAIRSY
UniProt O95202, residues 116-739: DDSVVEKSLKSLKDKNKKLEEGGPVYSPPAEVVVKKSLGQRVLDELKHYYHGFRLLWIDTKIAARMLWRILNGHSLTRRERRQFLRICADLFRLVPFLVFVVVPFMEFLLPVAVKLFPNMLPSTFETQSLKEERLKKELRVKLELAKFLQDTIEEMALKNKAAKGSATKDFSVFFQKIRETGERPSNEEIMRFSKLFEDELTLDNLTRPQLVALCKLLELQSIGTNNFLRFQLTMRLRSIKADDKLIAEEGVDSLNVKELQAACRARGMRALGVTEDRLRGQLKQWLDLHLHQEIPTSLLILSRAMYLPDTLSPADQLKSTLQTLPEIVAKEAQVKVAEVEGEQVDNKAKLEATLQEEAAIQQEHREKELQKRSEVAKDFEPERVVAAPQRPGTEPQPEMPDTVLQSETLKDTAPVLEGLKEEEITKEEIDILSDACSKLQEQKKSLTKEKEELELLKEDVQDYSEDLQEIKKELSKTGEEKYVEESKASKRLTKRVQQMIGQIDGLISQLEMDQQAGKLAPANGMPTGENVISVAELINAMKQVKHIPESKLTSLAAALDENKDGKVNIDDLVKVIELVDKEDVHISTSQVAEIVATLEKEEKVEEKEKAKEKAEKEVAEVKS
UniProt Q9BX68, residues 18-163: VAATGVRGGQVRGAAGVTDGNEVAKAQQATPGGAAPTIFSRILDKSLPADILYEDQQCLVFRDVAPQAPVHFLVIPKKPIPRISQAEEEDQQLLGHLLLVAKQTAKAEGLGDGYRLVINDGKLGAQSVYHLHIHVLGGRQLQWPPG

T1: SHMT2-BirA*-Flag (mouse) (UniProt Q9CZN7)
T1 sequence: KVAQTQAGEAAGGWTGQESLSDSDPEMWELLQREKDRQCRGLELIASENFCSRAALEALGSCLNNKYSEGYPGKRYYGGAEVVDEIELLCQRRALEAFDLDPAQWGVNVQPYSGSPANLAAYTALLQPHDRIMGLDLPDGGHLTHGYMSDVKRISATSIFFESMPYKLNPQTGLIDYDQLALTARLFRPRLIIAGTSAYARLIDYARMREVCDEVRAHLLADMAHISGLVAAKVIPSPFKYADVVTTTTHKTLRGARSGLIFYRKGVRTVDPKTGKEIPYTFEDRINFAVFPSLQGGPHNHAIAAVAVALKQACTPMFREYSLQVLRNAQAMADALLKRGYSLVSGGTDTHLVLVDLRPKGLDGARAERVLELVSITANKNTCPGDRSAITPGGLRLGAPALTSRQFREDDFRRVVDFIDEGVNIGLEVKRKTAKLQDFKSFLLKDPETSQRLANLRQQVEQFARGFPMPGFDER

B1: Isoleucine—tRNA ligase, mitochondrial (protein, UniProt Q9NSE4 49-1012)
chain: SNHQPNSNSGRYRDTVLLPQTSFPMKLLGRQQPDTELEIQQKCGFSELYSWQRERKVKTEFCLHDGPPYANGDPHVGHALNKILKDIANRFHMMNGSKIHFVPGWDCHGLPIEIKVLSELGREAQNLSAMEIRKKARSFAKAAIEKQKSAFIRWGIMADWNNCYYTFDGKYEAKQLRTFYQMYDKGLVYRSYKPVFWSPSSRTALAEAELEYNPEHVSRSIYVKFPLLKPSPKLASLIDGSSPVSILVWTTQPWTIPANEAVCYMPESKYAVVKCSKSGDLYVLAADKVASVASTLETTFETISTLSGVDLENGTCSHPLIPDKASPLLPANHVTMAKGTGLVHTAPAHGMEDYGVASQHNLPMDCLVDEDGVFTDVAGPELQNKAVLEEGTDVVIKMLQTAKNLLKEEKLVHSYPYDWRTKKPVVIRASKQWFINITDIKTAAKELLKKVKFIPGSALNGMVEMMDRRPYWCISRQRVWGVPIPVFHHKTKDEYLINSQTTEHIVKLVEQHGSDIWWTLPPEQLLPKEVLSEVGGPDALEYVPGQDILDIWFDSGTSWSYVLPGPDQRADLYLEGKDQLGGWFQSSLLTSVAARKRAPYKTVIVHGFTLGEKGEKMSKSLGNVIHPDVVVNGGQDQSKEPPYGADVLRWWVADSNVFTEVAIGPSVLNAARDDISKLRNTLRFLLGNVADFNPETDSIPVNDMYVIDQYMLHLLQDLANKITELYKQYDFGKVVRLLRTFYTRELSNFYFSIIKDRLYCEKENDPKRRSCQTALVEILDVIVRSFAPILPHLAEEVFQHIPYIKEPKSVFRTGWISTSSIWKKPGLEEAVESACAMRDSFLGSIPGKNAAEYKVITVIEPGLLFEIIEMLQSEETSSTSQLNELMMASESTLLAQEPREMTADVIELKGKFLINLEGGDIREESSYKVIVMPTTKEKCPRCWKYTAESSDTLCPRCAEVVSGK
B2: Pyrroline-5-carboxylate reductase 1, mitochondrial (protein, UniProt P32322 1-319)
chain: MSVGFIGAGQLAFALAKGFTAAGVLAAHKIMASSPDMDLATVSALRKMGVKLTPHNKETVQHSDVLFLAVKPHIIPFILDEIGADIEDRHIVVSCAAGVTISSIEKKLSAFRPAPRVIRCMTNTPVVVREGATVYATGTHAQVEDGRLMEQLLSSVGFCTEVEEDLIDAVTGLSGSGPAYAFTALDALADGGVKMGLPRRLAVRLGAQALLGAAKMLLHSEQHPGQLKDNVSSPGGATIHALHVLESGGFRSLLINAVEASCIRTRELQSMADQEQVSPAAIKKTILDKVKLDSPAGTALSPSGHTKLLPRSLAPAGKD
B3: 3-hydroxyacyl-CoA dehydrogenase type-2 (protein, UniProt Q99714 1-261)
chain: MAAACRSVKGLVAVITGGASGLGLATAERLVGQGASAVLLDLPNSGGEAQAKKLGNNCVFAPADVTSEKDVQTALALAKGKFGRVDVAVNCAGIAVASKTYNLKKGQTHTLEDFQRVLDVNLMGTFNVIRLVAGEMGQNEPDQGGQRGVIINTASVAAFEGQVGQAAYSASKGGIVGMTLPIARDLAPIGIRVMTIAPGLFGTPLLTSLPEKVCNFLASQVPFPSRLGDPAEYAHLVQAIIENPFLNGEVIRLDGAIRMQP
B4: Delta(3,5)-Delta(2,4)-dienoyl-CoA isomerase, mitochondrial (protein, UniProt Q13011 34-328)
chain: TGSSAQEEASGVALGEAPDHSYESLRVTSAQKHVLHVQLNRPNKRNAMNKVFWREMVECFNKISRDADCRAVVISGAGKMFTAGIDLMDMASDILQPKGDDVARISWYLRDIITRYQETFNVIERCPKPVIAAVHGGCIGGGVDLVTACDIRYCAQDAFFQVKEVDVGLAADVGTLQRLPKVIGNQSLVNELAFTARKMMADEALGSGLVSRVFPDKEVMLDAALALAAEISSKSPVAVQSTKVNLLYSRDHSVAESLNYVASWNMSMLQTQDLVKSVQATTENKELKTVTFSKL
B5: Acyl-coenzyme A thioesterase 1 (protein, UniProt Q86TX2 1-421)
chain: MAATLILEPAGRCCWDEPVRIAVRGLAPEQPVTLRASLRDEKGALFQAHARYRADTLGELDLERAPALGGSFAGLEPMGLLWALEPEKPLVRLVKRDVRTPLAVELEVLDGHDPDPGRLLCRVRHERYFLPPGVRREPVRAGRVRGTLFLPPEPGPFPGIVDMFGTGGGLLEYRASLLAGKGFAVMALAYYNYEDLPKTMETLHLEYFEEAVNYLLSHPEVKGPGVGLLGISKGGELCLSMASFLKGITAAVVINGSVANVGGTLRYKGETLPPVGVNRNRIKVTKDGYADIVDVLNSPLEGPDQKSFIPVERAESTFLFLVGQDDHNWKSEFYANEACKRLQAHGRRKPQIICYPETGHYIEPPYFPLCRASLHALVGSPIIWGGEPRAHAMAQVDAWKQLQTFFHKHLGGHEGTIPSKV
B6: Glycine amidinotransferase, mitochondrial (protein, UniProt P50440 44-423)
chain: ASSRNSCAADDKATEPLPKDCPVSSYNEWDPLEEVIVGRAENACVPPFTIEVKANTYEKYWPFYQKQGGHYFPKDHLKKAVAEIEEMCNILKTEGVTVRRPDPIDWSLKYKTPDFESTGLYSAMPRDILIVVGNEIIEAPMAWRSRFFEYRAYRSIIKDYFHRGAKWTTAPKPTMADELYNQDYPIHSVEDRHKLAAQGKFVTTEFEPCFDAADFIRAGRDIFAQRSQVTNYLGIEWMRRHLAPDYRVHIISFKDPNPMHIDATFNIIGPGIVLSNPDRPCHQIDLFKKAGWTIITPPTPIIPDDHPLWMSSKWLSMNVLMLDEKRVMVDANEVPIQKMFEKLGITTIKVNIRNANSLGGGFHCWTCDVRRRGTLQSYLD
B7: Mitochondrial ribonuclease P protein 1 (protein, UniProt Q7L0Y3 40-403)
chain: MSSKIPAVTYPKNESTPPSEELELDKWKTTMKSSVQEECVSTISSSKDEDPLAATREFIEMWRLLGREVPEHITEEELKTLMECVSNTAKKKYLKYLYTKEKVKKARQIKKEMKAAAREEAKNIKLLETTEEDKQKNFLFLRLWDRNMDIAMGWKGAQAMQFGQPLVFDMAYENYMKRKELQNTVSQLLESEGWNRRNVDPFHIYFCNLKIDGALHRELVKRYQEKWDKLLLTSTEKSHVDLFPKDSIIYLTADSPNVMTTFRHDKVYVIGSFVDKSMQPGTSLAKAKRLNLATECLPLDKYLQWEIGNKNLTLDQMIRILLCLKNNGNWQEALQFVPKRKHTGFLEISQHSQEFINRLKKAKT

Target: T1, SHMT2-BirA*-Flag (mouse)
Test: proximity labelling; BioID in HeLa cells with Tet-induced SHMT2-BirA*-Flag; biotinylated proteins purified on immobilized streptavidin, trypsin digestion, MS; compared with BirA*-Flag alone and CHCHD2-BirA*-Flag (n = 3; >32-fold, p <0.05)

Molecule	binding
NADH dehydrogenase [ubiquinone] 1 alpha subcomplex subunit 12 (from UniProt Q9UI09 1-145)	binds
AFG3-like protein 2 (from UniProt Q9Y4W6 67-797)	binds
Acyl-coenzyme A thioesterase 2, mitochondrial (human (endogenous in HeLa))	binds
Lipoamide acyltransferase component of branched-chain alpha-keto acid dehydrogenase complex, mitochondrial (from UniProt P11182 62-482)	binds
10 kDa heat shock protein, mitochondrial (from UniProt P61604 1-102)	binds
Elongation factor G, mitochondrial (from UniProt Q96RP9 37-751)	binds
FAST kinase domain-containing protein 2 (human (endogenous in HeLa))	binds
NDUFS6 (from UniProt O75380 29-124)	binds
Glutamate dehydrogenase, mitochondrial (from UniProt P00367 54-558)	binds
3-oxoacyl-[acyl-carrier-protein] synthase, mitochondrial (from UniProt Q9NWU1 28-459)	binds
Mimitin, mitochondrial (human (endogenous in HeLa))	binds
NADH dehydrogenase [ubiquinone] flavoprotein 2, mitochondrial (from UniProt P19404 33-249)	binds
NADH dehydrogenase [ubiquinone] flavoprotein 3, mitochondrial (from UniProt P56181 35-108)	binds
Cytochrome b-c1 complex subunit 7 (from UniProt P14927 1-111)	binds
ATP-dependent Clp protease ATP-binding subunit clpX-like, mitochondrial (from UniProt O76031 57-633)	binds
Glutaminase kidney isoform, mitochondrial (from UniProt O94925 55-669)	binds

Molecule	binding
NADH dehydrogenase [ubiquinone] 1 alpha subcomplex assembly factor 4 (from UniProt Q9P032 1-175)	binds
Iron-sulfur cluster assembly enzyme ISCU, mitochondrial (from UniProt Q9H1K1 35-167)	binds
Mitochondrial import inner membrane translocase subunit TIM44 (human (endogenous in HeLa))	binds
GTP-binding protein 10 (from UniProt A4D1E9 1-387)	binds
Succinate dehydrogenase [ubiquinone] flavoprotein subunit, mitochondrial (from UniProt P31040 43-664)	binds
LETM1 and EF-hand domain-containing protein 1, mitochondrial (from UniProt O95202 116-739)	binds
Cysteine desulfurase, mitochondrial (human (endogenous in HeLa))	binds
Histidine triad nucleotide-binding protein 2, mitochondrial (from UniProt Q9BX68 18-163)	binds
B1	binds
B2	binds
B3	binds
B4	binds
B5	binds
B6	binds
B7	binds
